{"sequences": {"note": "By UniProt entry, the sequences of proteins in these tests, tags left out. Residues count along the entry.", "UniProt O65934, residues 46-142": "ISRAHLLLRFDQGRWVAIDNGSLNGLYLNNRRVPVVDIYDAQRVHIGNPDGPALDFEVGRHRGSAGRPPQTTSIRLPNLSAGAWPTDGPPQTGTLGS"}, "source": "paper PMC5549992", "molecular_target": "T1, Mycobacterium tuberculosis universal stress protein Rv2623, GAL4 DNA-binding domain fusion (pGBKT7::Rv2623) (M. tuberculosis) (UniProt P9WFD7)", "T1 sequence": "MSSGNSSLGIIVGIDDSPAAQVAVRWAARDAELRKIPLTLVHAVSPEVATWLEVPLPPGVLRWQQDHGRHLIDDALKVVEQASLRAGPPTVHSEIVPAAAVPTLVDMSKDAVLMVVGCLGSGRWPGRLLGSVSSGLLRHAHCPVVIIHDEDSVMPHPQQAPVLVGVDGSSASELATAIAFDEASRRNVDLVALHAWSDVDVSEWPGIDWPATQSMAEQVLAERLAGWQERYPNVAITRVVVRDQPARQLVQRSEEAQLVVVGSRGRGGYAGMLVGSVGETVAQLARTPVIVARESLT", "assay": "two-hybrid", "note": "No constants are given. Whether binding was seen depends on the method and setting. Some entries that bind do so weakly or less than the wild type. Sequences can lack the tags named with a protein."}
{"substance": "Rv1747 fragment spanning amino acids 46 to 142, GAL4 activation domain fusion (library prey) (from UniProt O65934 46-142) (domain or fragment)", "values": [{"measurement": "binding", "result": "binds"}]}
